Source: the supplement of paper PMC10849652
This is one part of the list.

Protein sequences, listed by entry. Tags and fused reporters are not part of them. Lines headed by an entry give the natural chain unless they say otherwise; changes in a name come on top.
UniProt O60716: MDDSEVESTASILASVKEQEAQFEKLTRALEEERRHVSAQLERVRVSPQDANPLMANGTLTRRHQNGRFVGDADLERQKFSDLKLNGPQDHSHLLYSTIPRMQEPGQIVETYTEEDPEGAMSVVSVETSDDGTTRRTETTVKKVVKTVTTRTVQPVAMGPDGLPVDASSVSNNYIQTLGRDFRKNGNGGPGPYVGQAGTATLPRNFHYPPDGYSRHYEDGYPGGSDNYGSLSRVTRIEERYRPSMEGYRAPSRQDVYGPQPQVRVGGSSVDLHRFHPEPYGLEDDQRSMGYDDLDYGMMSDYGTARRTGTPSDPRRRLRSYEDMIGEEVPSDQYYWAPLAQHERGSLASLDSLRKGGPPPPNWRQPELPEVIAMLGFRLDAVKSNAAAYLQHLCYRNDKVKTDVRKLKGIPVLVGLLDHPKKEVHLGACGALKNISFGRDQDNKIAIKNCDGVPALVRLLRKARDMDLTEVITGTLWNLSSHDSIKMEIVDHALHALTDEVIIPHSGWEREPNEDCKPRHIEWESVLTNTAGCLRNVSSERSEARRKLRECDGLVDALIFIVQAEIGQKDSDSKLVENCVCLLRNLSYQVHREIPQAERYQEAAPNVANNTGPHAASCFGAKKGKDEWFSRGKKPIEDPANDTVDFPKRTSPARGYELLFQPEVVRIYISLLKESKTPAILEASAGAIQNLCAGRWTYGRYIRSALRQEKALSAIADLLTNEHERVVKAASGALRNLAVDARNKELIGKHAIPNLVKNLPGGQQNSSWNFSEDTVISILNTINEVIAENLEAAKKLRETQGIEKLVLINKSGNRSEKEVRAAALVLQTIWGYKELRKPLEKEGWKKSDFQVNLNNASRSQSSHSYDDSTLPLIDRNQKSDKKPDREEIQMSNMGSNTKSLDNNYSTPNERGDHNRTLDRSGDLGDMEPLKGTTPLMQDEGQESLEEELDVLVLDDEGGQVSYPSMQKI
UniProt Q6UW02: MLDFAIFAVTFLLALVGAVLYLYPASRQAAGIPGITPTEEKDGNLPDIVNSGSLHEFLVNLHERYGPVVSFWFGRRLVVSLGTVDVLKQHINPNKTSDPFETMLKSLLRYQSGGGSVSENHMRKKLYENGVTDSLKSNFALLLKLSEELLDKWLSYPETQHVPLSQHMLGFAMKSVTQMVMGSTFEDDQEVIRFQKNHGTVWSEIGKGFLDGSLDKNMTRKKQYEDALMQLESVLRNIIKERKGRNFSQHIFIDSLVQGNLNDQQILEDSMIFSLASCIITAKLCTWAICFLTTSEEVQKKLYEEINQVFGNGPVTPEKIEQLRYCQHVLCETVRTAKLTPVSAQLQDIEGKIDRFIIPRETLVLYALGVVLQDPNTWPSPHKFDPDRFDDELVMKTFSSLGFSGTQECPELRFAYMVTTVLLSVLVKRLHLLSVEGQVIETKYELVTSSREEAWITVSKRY
UniProt Q2TBE0: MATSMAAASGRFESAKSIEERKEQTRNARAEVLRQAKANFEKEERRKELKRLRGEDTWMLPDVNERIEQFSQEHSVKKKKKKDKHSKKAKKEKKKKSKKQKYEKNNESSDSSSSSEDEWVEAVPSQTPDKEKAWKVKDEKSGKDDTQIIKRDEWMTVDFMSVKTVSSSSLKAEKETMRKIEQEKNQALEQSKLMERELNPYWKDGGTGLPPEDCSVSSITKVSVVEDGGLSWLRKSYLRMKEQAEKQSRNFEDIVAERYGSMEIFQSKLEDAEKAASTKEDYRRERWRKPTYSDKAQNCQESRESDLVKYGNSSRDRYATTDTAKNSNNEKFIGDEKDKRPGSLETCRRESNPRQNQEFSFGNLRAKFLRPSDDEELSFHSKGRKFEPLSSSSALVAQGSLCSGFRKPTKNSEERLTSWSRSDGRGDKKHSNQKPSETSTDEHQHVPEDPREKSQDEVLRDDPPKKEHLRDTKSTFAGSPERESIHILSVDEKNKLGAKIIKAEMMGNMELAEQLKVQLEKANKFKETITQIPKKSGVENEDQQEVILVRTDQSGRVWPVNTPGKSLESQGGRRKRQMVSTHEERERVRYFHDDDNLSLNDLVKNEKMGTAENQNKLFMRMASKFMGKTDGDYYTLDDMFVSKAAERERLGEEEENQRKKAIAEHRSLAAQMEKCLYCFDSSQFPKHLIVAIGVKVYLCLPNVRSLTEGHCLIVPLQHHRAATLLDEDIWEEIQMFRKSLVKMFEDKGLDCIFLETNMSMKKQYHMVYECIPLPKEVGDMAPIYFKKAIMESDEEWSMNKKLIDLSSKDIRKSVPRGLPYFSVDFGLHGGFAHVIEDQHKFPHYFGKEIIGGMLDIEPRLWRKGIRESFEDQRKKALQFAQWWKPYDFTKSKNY
UniProt P43155: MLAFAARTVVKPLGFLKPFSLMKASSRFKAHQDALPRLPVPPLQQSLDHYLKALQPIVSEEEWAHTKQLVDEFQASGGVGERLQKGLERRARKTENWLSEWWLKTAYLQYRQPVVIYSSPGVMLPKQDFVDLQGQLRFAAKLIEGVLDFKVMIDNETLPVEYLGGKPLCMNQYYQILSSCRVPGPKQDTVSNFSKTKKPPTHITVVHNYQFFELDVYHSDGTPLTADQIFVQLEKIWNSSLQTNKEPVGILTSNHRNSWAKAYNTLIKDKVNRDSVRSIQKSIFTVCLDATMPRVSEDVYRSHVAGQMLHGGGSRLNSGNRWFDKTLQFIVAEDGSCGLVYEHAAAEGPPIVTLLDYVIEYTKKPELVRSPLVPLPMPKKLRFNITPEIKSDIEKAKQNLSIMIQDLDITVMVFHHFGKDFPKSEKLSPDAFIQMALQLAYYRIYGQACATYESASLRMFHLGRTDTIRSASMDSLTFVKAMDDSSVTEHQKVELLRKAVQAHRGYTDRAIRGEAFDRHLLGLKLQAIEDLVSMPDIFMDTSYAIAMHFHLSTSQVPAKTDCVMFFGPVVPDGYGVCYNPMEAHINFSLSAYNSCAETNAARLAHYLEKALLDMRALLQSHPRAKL
UniProt Q13620, whole entry, looked up: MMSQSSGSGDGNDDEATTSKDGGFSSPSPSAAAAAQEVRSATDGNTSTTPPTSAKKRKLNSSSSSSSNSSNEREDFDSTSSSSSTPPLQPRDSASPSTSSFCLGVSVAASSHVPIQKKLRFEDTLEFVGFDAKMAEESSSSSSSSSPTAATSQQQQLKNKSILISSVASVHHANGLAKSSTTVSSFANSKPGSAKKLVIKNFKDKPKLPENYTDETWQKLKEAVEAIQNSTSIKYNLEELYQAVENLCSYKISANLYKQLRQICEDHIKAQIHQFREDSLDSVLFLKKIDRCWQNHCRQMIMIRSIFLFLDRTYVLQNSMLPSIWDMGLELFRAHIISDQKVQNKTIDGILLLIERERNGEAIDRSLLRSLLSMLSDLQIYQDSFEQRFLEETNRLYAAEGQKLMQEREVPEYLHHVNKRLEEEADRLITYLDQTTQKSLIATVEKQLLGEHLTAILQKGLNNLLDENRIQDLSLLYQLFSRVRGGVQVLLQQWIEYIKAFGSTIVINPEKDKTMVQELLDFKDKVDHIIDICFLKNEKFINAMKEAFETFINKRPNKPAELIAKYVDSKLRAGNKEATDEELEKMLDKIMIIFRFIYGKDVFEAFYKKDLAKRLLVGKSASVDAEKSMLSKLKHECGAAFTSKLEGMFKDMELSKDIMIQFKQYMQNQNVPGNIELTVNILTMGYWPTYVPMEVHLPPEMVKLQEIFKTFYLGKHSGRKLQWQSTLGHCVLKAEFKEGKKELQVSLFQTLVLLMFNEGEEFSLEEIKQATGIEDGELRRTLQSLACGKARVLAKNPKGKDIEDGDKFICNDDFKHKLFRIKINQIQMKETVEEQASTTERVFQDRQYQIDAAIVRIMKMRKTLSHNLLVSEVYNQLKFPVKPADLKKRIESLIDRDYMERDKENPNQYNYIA
UniProt Q9UHQ9: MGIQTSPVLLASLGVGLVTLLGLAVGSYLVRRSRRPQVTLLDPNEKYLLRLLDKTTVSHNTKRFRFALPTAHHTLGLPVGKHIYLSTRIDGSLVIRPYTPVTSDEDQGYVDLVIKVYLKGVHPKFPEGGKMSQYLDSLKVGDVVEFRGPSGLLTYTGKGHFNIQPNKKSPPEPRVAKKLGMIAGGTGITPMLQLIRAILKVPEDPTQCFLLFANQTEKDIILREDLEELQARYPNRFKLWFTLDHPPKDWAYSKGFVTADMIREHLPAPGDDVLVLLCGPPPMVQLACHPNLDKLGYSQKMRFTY
UniProt P10619: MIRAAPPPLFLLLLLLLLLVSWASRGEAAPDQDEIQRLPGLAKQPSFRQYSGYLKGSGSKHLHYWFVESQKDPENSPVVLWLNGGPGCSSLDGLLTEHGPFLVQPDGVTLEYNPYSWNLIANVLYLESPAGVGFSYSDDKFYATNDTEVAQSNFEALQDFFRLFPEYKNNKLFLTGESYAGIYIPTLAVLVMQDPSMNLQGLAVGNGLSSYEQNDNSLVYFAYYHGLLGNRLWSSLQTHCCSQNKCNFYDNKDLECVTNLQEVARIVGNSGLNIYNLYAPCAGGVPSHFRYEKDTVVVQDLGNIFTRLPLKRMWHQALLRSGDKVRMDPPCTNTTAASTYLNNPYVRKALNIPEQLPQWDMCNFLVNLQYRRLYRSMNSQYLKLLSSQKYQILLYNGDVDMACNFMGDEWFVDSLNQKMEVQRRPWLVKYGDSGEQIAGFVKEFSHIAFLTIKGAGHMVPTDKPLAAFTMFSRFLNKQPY
UniProt Q7L576: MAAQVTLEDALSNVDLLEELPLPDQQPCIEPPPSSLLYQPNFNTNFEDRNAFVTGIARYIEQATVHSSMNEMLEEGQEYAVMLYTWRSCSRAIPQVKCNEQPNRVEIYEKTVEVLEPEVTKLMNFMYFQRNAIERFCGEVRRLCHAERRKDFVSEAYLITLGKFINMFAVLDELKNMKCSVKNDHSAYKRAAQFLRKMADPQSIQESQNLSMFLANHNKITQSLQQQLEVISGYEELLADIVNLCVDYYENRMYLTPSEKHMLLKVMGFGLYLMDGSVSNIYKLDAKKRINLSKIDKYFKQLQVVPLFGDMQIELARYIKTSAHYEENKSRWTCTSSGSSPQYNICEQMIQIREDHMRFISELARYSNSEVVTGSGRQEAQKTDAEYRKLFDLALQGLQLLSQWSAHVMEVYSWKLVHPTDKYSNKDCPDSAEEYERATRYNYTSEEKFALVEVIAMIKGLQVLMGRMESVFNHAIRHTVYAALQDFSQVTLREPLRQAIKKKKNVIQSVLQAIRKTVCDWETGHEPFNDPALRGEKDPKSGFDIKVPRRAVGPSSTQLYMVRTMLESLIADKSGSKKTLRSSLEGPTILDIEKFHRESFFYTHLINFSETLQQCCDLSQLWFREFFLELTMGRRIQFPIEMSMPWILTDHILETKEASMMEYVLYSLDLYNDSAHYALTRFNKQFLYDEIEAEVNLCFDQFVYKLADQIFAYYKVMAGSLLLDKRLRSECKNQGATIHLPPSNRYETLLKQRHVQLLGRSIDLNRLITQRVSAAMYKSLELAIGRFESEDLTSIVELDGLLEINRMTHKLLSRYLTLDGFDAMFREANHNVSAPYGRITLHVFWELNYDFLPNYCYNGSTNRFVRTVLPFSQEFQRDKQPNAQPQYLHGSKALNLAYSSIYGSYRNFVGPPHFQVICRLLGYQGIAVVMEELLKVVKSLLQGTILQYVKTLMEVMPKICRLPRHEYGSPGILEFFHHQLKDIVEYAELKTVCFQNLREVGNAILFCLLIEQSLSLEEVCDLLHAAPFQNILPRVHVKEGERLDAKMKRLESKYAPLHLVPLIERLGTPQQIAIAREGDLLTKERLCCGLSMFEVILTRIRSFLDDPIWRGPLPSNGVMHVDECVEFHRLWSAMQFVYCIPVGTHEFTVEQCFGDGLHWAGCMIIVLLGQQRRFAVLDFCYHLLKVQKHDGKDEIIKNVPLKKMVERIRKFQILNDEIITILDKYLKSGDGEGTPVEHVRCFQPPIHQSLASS
UniProt Q9Y2S2: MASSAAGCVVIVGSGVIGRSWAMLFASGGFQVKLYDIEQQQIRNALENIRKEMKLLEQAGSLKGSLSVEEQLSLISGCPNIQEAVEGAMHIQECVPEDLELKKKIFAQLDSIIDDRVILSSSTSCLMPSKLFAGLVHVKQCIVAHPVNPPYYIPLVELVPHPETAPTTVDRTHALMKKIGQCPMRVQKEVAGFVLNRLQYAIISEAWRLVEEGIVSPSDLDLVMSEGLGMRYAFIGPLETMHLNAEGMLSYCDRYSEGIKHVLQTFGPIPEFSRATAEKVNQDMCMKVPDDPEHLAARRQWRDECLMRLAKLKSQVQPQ
UniProt P99999: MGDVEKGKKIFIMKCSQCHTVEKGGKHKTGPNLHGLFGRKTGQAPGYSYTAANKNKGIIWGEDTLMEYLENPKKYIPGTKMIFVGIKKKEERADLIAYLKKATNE

compound: O=C(CCCCCCC(=O)Nc1ccccc1)NO [vorinostat]; assay: log2 fold change, soluble protein after heating vs DMSO (PISA); higher = thermal stabilisation; K562 lysate, 10 uM; active = over 0.2 and 3.5 SD of the protein, either way, in both replicates (recomputed)
Method in brief: (§1)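 To prepare the extract, K562 pellets were dounce-homogenised in PBS pH 7.4 with 1 mM MgCl2, giving crude material at 1 mg/mL protein. This was treated with 10 μM compound for 30 min, then heated in aliquots for 3 min over 48°C-58°C before pooling and addition of NP-40 to 0.5% at 4°C. Centrifugation at 21,000xg for 90 min left soluble protein in the supernatant, which TMTpro 16plex LC-MS/MS quantified with equalised channel sums. Results are log-two fold changes in thermal stability compared with solvent controls, from duplicates.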

Row | Target | log2 fold change
1 | CTNND1 isoform 3 (UniProt O60716) | active: -0.371
2 | CYP20A1 (UniProt Q6UW02) | inactive: 0.105
3 | CWF19L2 (UniProt Q2TBE0) | inactive: -0.063
4 | CRAT (UniProt P43155) | inactive: -0.089
5 | CUL4B (UniProt Q13620) | inactive: 0.03
6 | CXorf56 (UniProt Q9H5V9) | inactive: -0.083
7 | CYB5R1 (UniProt Q9UHQ9) | inactive: -0.075
8 | CTSA (UniProt P10619) | inactive: 0.008
9 | CYFIP1 (UniProt Q7L576) | inactive: -0.034
10 | CRYL1 (UniProt Q9Y2S2) | inactive: -0.271
11 | CTPS1 (UniProt P17812) | active: 0.565

compound: O=C(O)c1ccc2c(c1)nc(Nc1cccc(Cl)c1)c1ccncc12 [silmitasertib]; assay: as above
Method in brief: as §1

Row | Target | log2 fold change
12 | CTSC (UniProt P53634) | inactive: 0.01
13 | CTTN isoform 2 (UniProt Q14247) | inactive: -0.03
14 | CSPG5 isoform 2 (UniProt O95196) | inactive: 0.08
15 | CUL5 (UniProt Q93034) | inactive: 0.003
16 | CROCC (UniProt Q5TZA2) | inactive: 0.068
17 | CSRP3 (UniProt P50461) | inactive: 0.141
18 | CTNNB1 (UniProt P35222) | inactive: 0.017
19 | CSPP1 (UniProt Q1MSJ5) | inactive: -0.027
20 | CSRP1 (UniProt P21291) | inactive: -0.009
21 | CYCS (UniProt P99999) | inactive: -0.004
22 | CTIF isoform 2 (UniProt O43310) | inactive: 0.038
23 | CSNK1A1 (UniProt P48729) | inactive: 0.088
24 | CTC1 (UniProt Q2NKJ3) | inactive: 0.149
25 | CREB1 (UniProt P16220) | inactive: -0.004
26 | CYBA (UniProt P13498) | inactive: -0.042
27 | CST3 (UniProt P01034) | inactive: 0.038
28 | CTNNAL1 (UniProt Q9UBT7) | inactive: 0.024

Row | Target | log2 fold change
29 | CYBRD1 (UniProt Q53TN4) | inactive: 0.121
30 | CTSH (UniProt P09668) | inactive: -0.024
31 | CTNNBL1 (UniProt Q8WYA6) | inactive: -0.044
32 | CTPS2 (UniProt Q9NRF8) | inactive: 0.007
33 | CREG1 (UniProt O75629) | inactive: -0.139
34 | CSTF3 (UniProt Q12996) | inactive: 0.017
35 | CTNND1 isoform 3 (UniProt O60716) | inactive: 0.034
36 | CYP20A1 (UniProt Q6UW02) | inactive: -0.016
37 | CWF19L2 (UniProt Q2TBE0) | inactive: 0.035
38 | CRAT (UniProt P43155) | inactive: -0.034
39 | CUL4B (UniProt Q13620) | inactive: -0.011
40 | CXorf56 (UniProt Q9H5V9) | inactive: -0.02
41 | CYB5R1 (UniProt Q9UHQ9) | inactive: 0.005
42 | CTSA (UniProt P10619) | inactive: -0.044
43 | CYFIP1 (UniProt Q7L576) | inactive: 0.029
44 | CRYL1 (UniProt Q9Y2S2) | inactive: -0.02
45 | CTPS1 (UniProt P17812) | inactive: 0.028

compound: O=C1NC(=O)C(c2cnc3ccccn23)=C1c1cn2c3c(cc(F)cc13)CN(C(=O)N1CCCCC1)CC2; assay: as above
Method in brief: as §1

Row | Target | log2 fold change
46 | CTSC (UniProt P53634) | inactive: -0.004
47 | CTTN isoform 2 (UniProt Q14247) | inactive: 0.015
48 | CSPG5 isoform 2 (UniProt O95196) | inactive: -0.01
49 | CUL5 (UniProt Q93034) | inactive: -0.005
50 | CROCC (UniProt Q5TZA2) | inactive: 0.063
51 | CSRP3 (UniProt P50461) | inactive: -0.045
52 | CTNNB1 (UniProt P35222) | inactive: 0.002
53 | CSPP1 (UniProt Q1MSJ5) | inactive: 0.043
54 | CSRP1 (UniProt P21291) | inactive: 0.015
55 | CYCS (UniProt P99999) | inactive: 0.033
56 | CTIF isoform 2 (UniProt O43310) | inactive: 0.001
57 | CSNK1A1 (UniProt P48729) | inactive: -0.044
58 | CTC1 (UniProt Q2NKJ3) | inactive: 0.084
59 | CREB1 (UniProt P16220) | inactive: -0.006
60 | CYBA (UniProt P13498) | inactive: -0.013
61 | CST3 (UniProt P01034) | inactive: -0.001
62 | CTNNAL1 (UniProt Q9UBT7) | inactive: 0.033

Row | Target | log2 fold change
63 | CYBRD1 (UniProt Q53TN4) | inactive: 0.017
64 | CTSH (UniProt P09668) | inactive: 0.036
65 | CTNNBL1 (UniProt Q8WYA6) | inactive: -0.025
66 | CTPS2 (UniProt Q9NRF8) | inactive: -0.034
67 | CREG1 (UniProt O75629) | inactive: 0.059
68 | CSTF3 (UniProt Q12996) | inactive: -0.033
69 | CTNND1 isoform 3 (UniProt O60716) | inactive: -0.014
70 | CYP20A1 (UniProt Q6UW02) | inactive: -0.042
71 | CWF19L2 (UniProt Q2TBE0) | inactive: -0.028
72 | CRAT (UniProt P43155) | inactive: -0.056
73 | CUL4B (UniProt Q13620) | inactive: -0.018
74 | CXorf56 (UniProt Q9H5V9) | inactive: 0.014
75 | CYB5R1 (UniProt Q9UHQ9) | inactive: -0.002
76 | CTSA (UniProt P10619) | inactive: -0.011
77 | CYFIP1 (UniProt Q7L576) | inactive: -0.001
78 | CRYL1 (UniProt Q9Y2S2) | inactive: 0.116
79 | CTPS1 (UniProt P17812) | inactive: -0.008
